Article PMC5048297
Results are given in words; binding and its absence hold for the method and conditions named. In cells and extracts the contact can be indirect. Some entries that bind do so weakly or less than the wild type. For some of these results: Where a sequence is shown, tags or fusion partners need not be part of it.

Legend:
[1] = target: T1, thioredoxin-1 (TRX-1), endogenous in RAW264.7 cells (mouse (endogenous in RAW264.7)) (UniProt P10639); experiment: co-IP; RAW264.7 total cell lysates after LPS stimuli; IP with anti-TRX-1 antibody and protein A/G agarose; immunoblot for p40phox, gp91phox and TRX-1
T1 sequence: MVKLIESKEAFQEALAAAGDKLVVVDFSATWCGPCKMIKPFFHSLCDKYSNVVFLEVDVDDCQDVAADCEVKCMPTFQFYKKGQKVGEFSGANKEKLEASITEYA

[2] = target: T2, Nox2-(gp91phox)-myc (transfected in HEK293T cells) (UniProt P04839); experiment: co-IP; HEK293T cells transfected with Nox2-(gp91phox)-myc and native TRX-1; IP with anti-myc immunoprecipitation kit; immunoblot for TRX-1
T2 sequence: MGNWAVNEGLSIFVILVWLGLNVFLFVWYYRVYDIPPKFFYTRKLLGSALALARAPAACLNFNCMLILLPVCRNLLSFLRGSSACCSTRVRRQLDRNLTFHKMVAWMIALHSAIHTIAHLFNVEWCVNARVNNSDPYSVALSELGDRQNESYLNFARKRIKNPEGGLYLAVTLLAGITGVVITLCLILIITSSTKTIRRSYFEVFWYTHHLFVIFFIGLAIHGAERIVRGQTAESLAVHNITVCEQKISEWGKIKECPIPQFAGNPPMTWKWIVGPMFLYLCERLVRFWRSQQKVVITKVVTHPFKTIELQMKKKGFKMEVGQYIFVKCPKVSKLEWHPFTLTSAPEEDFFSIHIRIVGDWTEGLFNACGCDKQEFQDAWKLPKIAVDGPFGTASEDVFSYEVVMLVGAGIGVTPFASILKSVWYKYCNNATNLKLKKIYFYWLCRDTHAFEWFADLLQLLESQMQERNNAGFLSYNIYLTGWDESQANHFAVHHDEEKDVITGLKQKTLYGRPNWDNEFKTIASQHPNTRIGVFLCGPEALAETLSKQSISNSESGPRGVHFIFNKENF

[3] = target: T3, p40phox-GFP (transfected in HEK293T cells) (UniProt Q15080); experiment: co-IP; HEK293T cells transfected with p40phox-GFP and either native or CC32/35SS TRX-1; IP with GFP-Trap A (anti-GFP); immunoblot for GFP and TRX-1
T3 sequence: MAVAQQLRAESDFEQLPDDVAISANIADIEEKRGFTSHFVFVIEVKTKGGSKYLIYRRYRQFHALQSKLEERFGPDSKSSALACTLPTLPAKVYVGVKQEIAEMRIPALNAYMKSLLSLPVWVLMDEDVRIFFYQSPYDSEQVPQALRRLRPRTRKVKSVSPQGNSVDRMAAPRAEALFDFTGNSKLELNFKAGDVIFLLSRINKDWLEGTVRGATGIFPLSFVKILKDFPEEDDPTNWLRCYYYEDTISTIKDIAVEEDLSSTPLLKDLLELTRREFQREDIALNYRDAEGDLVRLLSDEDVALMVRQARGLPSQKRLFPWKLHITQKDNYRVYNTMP

B1: p40phox, endogenous in RAW264.7 cells (protein, UniProt P97369 1-339)
chain: MALAQQLRSESDFEQLPDDVAVSANIADIEEKRGFTSHFVFVIEVKTKGGSKYLIYRRYRQFYALQSKLEERFGPESKNSPFTCSLPTLPAKVYMGAKQEIAETRIPALNAYMKNLLSLPVCVLMDPDVRIFFYQSAYDAEQVPQALRRLRPRTRKIKGVSPQGAIMDRMEAPRAEALFDFTGNSKLELSFKAGDVIFLLSKINKDWLEGTSQGATGIFPGSFVKILKDFPEDEDTTNWLRCYFYEDTGKTIKDIAVEEDLSSTPLFKDLLALMRREFQREDIALSYQDAEGDLVRLLSDEDVGLMVKQARGLPSQKRLFPWKLHVTQKDNYSVYNTVP
- binding [1]: binds

B2: native TRX-1 (transfected in HEK293T cells) (protein, UniProt P10599 1-105)
chain: MVKQIESKTAFQEALDAAGDKLVVVDFSATWCGPCKMIKPFFHSLSEKYSNVIFLEVDVDDCQDVASECEVKCMPTFQFFKKGQKVGEFSGANKEKLEATINELV
- binding [2]: no binding
- binding [3]: binds

B3: mutated CC32/35SS TRX-1 (transfected in HEK293T cells) (protein, UniProt P10599 1-105)
chain: MVKQIESKTAFQEALDAAGDKLVVVDFSATWSGPSKMIKPFFHSLSEKYSNVIFLEVDVDDCQDVASECEVKCMPTFQFFKKGQKVGEFSGANKEKLEATINELV
- binding [3]: no binding
